From the supplement of paper PMC6411743
± gives the standard deviation of the averaged measurements. The list shows a part of the results.

By UniProt entry, the sequences of proteins in these tests, tags left out. Where a name states a change or a piece, a line headed by the entry shows the natural chain unless it says otherwise.
UniProt Q9P1Y5: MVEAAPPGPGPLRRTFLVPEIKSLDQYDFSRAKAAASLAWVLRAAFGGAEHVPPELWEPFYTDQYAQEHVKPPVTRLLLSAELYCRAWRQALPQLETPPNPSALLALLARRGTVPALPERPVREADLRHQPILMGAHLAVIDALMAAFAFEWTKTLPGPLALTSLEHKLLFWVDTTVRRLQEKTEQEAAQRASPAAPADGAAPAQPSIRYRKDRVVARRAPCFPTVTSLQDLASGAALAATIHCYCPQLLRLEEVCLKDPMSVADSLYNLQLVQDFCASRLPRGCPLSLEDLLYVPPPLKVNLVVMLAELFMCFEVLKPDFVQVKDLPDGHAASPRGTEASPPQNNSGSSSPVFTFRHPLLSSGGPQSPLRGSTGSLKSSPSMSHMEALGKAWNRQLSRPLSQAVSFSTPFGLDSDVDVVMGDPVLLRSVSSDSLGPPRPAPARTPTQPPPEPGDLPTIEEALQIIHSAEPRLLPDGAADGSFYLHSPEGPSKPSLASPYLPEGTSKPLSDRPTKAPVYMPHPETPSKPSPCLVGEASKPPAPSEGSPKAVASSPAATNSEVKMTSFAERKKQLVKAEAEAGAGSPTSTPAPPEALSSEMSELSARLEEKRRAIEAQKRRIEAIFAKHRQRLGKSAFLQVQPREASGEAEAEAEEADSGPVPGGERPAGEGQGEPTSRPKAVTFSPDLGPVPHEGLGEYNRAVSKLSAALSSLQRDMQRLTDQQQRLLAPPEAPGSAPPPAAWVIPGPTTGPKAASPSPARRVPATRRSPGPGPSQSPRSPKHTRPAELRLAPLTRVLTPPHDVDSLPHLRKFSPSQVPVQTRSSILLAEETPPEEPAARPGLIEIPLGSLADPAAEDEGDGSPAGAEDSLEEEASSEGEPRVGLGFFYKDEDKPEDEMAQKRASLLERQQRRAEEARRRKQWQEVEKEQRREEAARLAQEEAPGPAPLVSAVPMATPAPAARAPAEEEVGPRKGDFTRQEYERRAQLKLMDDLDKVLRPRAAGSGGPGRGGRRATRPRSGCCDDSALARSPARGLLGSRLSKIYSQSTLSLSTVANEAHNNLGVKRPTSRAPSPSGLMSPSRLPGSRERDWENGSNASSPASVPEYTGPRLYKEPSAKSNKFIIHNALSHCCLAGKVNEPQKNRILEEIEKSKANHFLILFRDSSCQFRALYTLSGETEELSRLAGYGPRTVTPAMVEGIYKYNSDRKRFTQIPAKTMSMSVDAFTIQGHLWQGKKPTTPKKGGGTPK
UniProt Q9NVK5: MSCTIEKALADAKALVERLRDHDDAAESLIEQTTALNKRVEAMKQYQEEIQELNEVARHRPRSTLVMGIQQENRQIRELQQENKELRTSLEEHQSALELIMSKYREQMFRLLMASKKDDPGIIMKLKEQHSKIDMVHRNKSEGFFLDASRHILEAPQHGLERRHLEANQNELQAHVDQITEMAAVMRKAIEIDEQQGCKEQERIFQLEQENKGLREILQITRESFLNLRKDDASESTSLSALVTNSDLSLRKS
UniProt Q9ULC3: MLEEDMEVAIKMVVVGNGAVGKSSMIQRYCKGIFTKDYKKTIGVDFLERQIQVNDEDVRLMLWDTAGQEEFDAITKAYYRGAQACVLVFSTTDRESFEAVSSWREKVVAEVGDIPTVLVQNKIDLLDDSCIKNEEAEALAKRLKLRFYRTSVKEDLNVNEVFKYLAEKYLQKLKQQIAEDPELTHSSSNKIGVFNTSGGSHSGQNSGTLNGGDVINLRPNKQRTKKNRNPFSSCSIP
UniProt Q9NVI1: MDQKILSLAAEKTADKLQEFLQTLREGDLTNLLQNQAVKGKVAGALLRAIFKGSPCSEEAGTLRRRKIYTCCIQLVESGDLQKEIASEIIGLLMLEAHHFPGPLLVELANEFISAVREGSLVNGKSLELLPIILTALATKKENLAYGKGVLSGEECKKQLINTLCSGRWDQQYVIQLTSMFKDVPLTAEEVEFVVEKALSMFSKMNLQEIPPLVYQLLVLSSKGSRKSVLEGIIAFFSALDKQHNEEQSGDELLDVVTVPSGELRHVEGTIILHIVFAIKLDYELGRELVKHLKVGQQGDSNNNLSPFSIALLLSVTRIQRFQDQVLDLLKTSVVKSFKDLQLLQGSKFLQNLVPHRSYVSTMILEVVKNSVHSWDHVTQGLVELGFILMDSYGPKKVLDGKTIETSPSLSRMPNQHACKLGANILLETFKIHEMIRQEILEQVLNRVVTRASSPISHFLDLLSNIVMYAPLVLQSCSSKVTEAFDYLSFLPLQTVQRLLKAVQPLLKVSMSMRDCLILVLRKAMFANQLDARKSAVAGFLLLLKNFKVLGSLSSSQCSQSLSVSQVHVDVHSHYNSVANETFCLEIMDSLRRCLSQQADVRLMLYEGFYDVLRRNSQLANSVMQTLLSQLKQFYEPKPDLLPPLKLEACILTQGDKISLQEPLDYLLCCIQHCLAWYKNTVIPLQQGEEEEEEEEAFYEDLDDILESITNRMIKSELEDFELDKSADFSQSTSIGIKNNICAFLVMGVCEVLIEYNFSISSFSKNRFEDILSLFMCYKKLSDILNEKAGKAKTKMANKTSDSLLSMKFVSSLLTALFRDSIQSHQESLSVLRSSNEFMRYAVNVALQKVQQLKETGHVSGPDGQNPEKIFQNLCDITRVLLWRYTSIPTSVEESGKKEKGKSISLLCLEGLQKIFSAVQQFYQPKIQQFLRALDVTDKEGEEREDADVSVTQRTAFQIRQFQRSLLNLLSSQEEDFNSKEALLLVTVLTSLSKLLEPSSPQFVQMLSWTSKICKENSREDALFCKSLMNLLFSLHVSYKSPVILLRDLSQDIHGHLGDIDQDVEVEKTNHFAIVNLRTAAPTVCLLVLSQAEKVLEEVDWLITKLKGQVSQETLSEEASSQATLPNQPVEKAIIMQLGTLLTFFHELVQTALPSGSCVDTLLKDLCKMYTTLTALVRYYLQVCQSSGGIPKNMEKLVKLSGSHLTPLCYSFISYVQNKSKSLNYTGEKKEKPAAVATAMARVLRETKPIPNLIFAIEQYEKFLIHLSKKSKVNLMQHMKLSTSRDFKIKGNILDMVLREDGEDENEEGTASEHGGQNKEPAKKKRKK
UniProt Q9NUY8: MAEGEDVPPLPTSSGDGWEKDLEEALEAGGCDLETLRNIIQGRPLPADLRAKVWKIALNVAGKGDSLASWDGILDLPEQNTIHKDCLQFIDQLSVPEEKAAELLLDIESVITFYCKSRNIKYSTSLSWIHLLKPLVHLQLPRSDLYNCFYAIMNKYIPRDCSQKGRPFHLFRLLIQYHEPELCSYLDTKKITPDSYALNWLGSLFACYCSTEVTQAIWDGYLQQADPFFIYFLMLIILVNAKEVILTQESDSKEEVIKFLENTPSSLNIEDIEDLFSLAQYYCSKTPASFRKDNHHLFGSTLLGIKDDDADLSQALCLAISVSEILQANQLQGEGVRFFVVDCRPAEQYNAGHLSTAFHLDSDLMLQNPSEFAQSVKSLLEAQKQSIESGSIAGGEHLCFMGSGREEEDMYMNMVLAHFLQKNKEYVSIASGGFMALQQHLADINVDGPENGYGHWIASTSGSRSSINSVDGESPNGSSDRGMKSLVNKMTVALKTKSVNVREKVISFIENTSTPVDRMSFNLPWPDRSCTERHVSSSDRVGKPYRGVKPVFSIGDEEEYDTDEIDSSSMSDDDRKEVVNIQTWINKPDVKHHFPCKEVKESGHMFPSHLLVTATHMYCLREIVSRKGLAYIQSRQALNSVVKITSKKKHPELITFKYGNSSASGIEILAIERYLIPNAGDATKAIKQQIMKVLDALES
UniProt Q9NWT6: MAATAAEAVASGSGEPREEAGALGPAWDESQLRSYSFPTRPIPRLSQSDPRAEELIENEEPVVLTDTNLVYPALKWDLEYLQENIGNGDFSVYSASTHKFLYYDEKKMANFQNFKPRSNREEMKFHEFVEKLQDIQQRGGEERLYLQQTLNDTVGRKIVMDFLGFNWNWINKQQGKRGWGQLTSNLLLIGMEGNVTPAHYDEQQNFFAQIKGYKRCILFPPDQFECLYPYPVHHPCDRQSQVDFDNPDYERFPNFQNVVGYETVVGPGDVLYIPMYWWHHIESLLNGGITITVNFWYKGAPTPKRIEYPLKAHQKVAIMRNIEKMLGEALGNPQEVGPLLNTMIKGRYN
UniProt Q9P1Z2: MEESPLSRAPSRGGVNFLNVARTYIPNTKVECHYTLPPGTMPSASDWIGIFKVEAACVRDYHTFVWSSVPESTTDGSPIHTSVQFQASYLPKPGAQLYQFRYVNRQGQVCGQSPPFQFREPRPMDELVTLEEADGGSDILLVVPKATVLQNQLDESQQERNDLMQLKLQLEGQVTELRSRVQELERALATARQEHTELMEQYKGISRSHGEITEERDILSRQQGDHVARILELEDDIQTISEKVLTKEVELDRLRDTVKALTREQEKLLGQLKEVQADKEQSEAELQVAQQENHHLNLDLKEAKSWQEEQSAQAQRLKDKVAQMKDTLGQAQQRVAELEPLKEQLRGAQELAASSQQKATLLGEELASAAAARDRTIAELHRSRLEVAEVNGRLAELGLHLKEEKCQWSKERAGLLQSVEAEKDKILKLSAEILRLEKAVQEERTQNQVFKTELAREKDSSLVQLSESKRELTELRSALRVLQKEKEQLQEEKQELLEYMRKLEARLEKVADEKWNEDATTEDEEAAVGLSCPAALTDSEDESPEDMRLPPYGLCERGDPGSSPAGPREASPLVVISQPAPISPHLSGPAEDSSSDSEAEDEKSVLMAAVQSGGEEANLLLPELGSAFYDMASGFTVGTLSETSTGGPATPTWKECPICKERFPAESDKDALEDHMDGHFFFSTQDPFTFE
UniProt Q9NX74: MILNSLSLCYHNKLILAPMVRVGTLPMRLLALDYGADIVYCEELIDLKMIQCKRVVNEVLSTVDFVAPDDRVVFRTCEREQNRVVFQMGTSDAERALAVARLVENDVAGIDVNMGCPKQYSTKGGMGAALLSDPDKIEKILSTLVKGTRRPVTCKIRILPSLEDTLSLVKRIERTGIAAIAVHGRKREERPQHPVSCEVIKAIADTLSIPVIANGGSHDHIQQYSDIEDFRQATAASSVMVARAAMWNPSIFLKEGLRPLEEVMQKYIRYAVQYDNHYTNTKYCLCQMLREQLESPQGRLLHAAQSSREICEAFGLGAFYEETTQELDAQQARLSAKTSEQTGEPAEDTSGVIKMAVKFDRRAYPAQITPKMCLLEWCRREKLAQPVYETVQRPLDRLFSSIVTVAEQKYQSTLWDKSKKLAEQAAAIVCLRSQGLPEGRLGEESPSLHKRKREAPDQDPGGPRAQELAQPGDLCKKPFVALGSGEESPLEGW
UniProt Q9NZB2: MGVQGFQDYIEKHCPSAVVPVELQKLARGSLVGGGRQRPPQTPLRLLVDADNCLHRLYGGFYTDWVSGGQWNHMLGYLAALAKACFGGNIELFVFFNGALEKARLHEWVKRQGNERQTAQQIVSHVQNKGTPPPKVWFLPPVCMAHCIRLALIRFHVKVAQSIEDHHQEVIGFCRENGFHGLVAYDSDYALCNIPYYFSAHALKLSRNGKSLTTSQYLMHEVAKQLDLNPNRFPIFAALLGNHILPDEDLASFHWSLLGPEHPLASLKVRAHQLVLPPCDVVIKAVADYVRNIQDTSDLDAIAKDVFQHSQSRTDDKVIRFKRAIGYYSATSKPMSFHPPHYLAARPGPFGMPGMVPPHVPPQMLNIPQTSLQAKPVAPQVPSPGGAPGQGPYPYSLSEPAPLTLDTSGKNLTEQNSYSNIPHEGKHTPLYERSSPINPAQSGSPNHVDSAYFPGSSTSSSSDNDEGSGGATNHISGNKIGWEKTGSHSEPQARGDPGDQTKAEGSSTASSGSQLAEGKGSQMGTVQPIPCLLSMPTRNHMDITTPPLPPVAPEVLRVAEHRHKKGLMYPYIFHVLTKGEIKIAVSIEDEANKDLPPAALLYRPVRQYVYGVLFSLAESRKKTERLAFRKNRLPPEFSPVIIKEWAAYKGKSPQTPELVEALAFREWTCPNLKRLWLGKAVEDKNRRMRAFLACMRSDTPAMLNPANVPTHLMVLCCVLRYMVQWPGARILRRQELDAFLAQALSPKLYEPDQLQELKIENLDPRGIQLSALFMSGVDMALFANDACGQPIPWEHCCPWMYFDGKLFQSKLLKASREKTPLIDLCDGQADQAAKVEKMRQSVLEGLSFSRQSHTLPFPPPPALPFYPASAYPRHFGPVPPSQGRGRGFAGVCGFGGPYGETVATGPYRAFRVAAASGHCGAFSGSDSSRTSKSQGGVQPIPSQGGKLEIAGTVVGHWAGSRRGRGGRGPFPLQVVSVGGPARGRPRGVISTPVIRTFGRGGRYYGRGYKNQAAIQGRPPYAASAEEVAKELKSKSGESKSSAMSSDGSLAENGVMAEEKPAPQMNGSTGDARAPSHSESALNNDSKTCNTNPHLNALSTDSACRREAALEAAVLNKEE

Compound: Nc1nc2c(ncn2[C@@H]2O[C@H](COP(=O)(O)OP(=O)(O)OP(=O)(O)O)[C@@H](O)[C@H]2O)c(=O)[nH]1 [guanosine triphosphate]
Assay: NP40-soluble protein abundance relative to vehicle (solubility fold change) (ratio); higher = more soluble protein in presence of GTP
Procedure, shortened: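 Values are fold changes against the detergent-processed vehicle, based on vsn-normalised intensities. Jurkat crude lysate was treated at eight concentrations from 0.1 to 10 mM (10 min at room temperature, then 3 min at 37 °C), solubilised with 0.8% NP40 and benzonase, ultracentrifuged and analysed by TMT-labelled LC-MS/MS over three independent experiments.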

Target	NP40-soluble protein abundance (concentration: 0.1mM)	NP40-soluble protein abundance (concentration: 0.5mM)	NP40-soluble protein abundance (concentration: 1mM)	NP40-soluble protein abundance (concentration: 2mM)	NP40-soluble protein abundance (concentration: 4mM)	NP40-soluble protein abundance (concentration: 6mM)	NP40-soluble protein abundance (concentration: 8mM)	NP40-soluble protein abundance (concentration: 10mM)
UniProt Q9P1Y5 and related entries	1.07 ± 0.041	1.13 ± 0.051	1.07 ± 0.074	1.13 ± 0.042	1.147 ± 0.0027	1.18 ± 0.14	1.15 ± 0.016	1.14 ± 0.031
UniProt Q9NVK5 and related entries	0.987 ± 0.072	0.945 ± 0.1	1.16 ± 0.17	1.11 ± 0.086	1.13 ± 0.1	1.19 ± 0.092	1.28 ± 0.17	1.27 ± 0.2
RAB23 (UniProt Q9ULC3)	0.966 ± 0.022	1 ± 0.061	0.914 ± 0.04	0.949 ± 0.078	0.839 ± 0.07	0.877 ± 0.049	0.862 ± 0.1	0.806 ± 0.13
FANCI (UniProt Q9NVI1)	1.02 ± 0.018	1.03 ± 0.062	0.968 ± 0.032	0.98 ± 0.062	0.958 ± 0.054	0.981 ± 0.034	0.967 ± 0.027	0.955 ± 0.039
UniProt Q9NUY8 and related entries	1 ± 0.075	0.952 ± 0.052	0.994 ± 0.064	1.1 ± 0.2	0.946 ± 0.071	0.941 ± 0.059	0.958 ± 0.076	0.959 ± 0.091
HIF1AN (UniProt Q9NWT6)	0.991 ± 0.021	1.04 ± 0.022	0.928 ± 0.0097	0.896 ± 0.025	0.866 ± 0.053	0.886 ± 0.063	0.882 ± 0.038	0.861 ± 0.042
UniProt Q9NUP1	0.936 ± 0.15	0.888 ± 0.075	0.985 ± 0.21	0.979 ± 0.18	0.959 ± 0.14	0.939 ± 0.13	0.998 ± 0.016	1.06 ± 0.11
UniProt Q9P1Z2 and related entries	0.975 ± 0.09	0.932 ± 0.1	0.964 ± 0.087	0.925 ± 0.16	0.937 ± 0.14	0.935 ± 0.12	0.932 ± 0.017	0.944 ± 0.12
UniProt Q9NX74	1.03 ± 0.016	1.05 ± 0.039	1.02 ± 0.022	1.01 ± 0.039	1.01 ± 0.055	0.991 ± 0.055	1.02 ± 0.044	0.964 ± 0.045
UniProt Q9UBT6 and related entries	0.98 ± 0.082	0.97 ± 0.03	0.95 ± 0.017	0.979 ± 0.057	1.01 ± 0.068	0.962 ± 0.04	1.04 ± 0.075	1.07 ± 0.067
MRTO4 (UniProt Q9UKD2)	1.04 ± 0.025	1.08 ± 0.059	1 ± 0.035	1.03 ± 0.02	0.979 ± 0.06	0.984 ± 0.037	0.966 ± 0.071	0.95 ± 0.071
UniProt Q9NZB2 and related entries	1.02 ± 0.028	1.07 ± 0.042	1.11 ± 0.12	1.16 ± 0.14	1.18 ± 0.16	1.2 ± 0.15	1.25 ± 0.18	1.24 ± 0.17
VAPA (UniProt Q9P0L0)	0.9457 ± 0.0073	0.957 ± 0.051	0.98 ± 0.03	0.951 ± 0.075	0.929 ± 0.047	0.965 ± 0.063	0.958 ± 0.03	0.956 ± 0.051
UniProt Q9NW15-5|Q9NW15 and related entries	1.18 ± 0.14	1.07 ± 0.045	1.1 ± 0.12	0.978 ± 0.17	1.06 ± 0.17	0.981 ± 0.15	0.975 ± 0.11	0.987 ± 0.16

Quoted from the listing.
HIF1AN (UniProt Q9NWT6) – NP40-soluble protein abundance (concentration: 10mM): 0.861 ± 0.042
VAPA (UniProt Q9P0L0) – NP40-soluble protein abundance (concentration: 6mM): 0.965 ± 0.063
